According to PubChem BioAssay AID1347426 (Functional Genomics Laboratory (NCATS/FGL), 2020):
About 1,400 (4.5%) of roughly 31,000 sequences were called active.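 The calls were made as follows: active = median seed-adjusted z-score above 1 or below -1; inactive = the rest.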 This is one part of the list.

Assay: Novel Modifiers of Survival Motor Neuron (SMN) Protein: Gene Identification via Genome-wide siRNA Screen;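 also: luminescence tracks full-length SMN protein made from the SMN2 reporter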
Details: HEK293T SMN2-luciferase reporter, siRNA knockdown, 72 h; actives lie on both sides
Summary of the method: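 siRNA screen, 10418 genes ×3 siRNAs; 1 pmol/well, lipid reverse transfection into HEK293T SMN2-luc reporter line. 72 h, 37 °C, 5% CO2; ONE-Glo readout. Data: neg-ctrl normalized, log10, MAD; hit = MAD >1.0 or < -1.0.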

Question: For AAUUCUACACUUUCCUAAATT against GPX3, which median seed-adjusted z-score is on record?
Answer: The median seed-adjusted z-score was inactive: 0.193.

Question: With GUGACUCACUUAUUCAAGATT against PSMA6 as the sequence, how does the median seed-adjusted z-score read?
Answer: Its median seed-adjusted z-score is inactive: -0.768.

Question: For GAAAUAGACAUGAAGGUUATT against GUCY1B3, which median seed-adjusted z-score is on record?
Answer: Its median seed-adjusted z-score is inactive: -0.19.

Question: With UGCAGAACCAGUAUCCUGATT against GSC2 as the sequence, how does the median seed-adjusted z-score read?
Answer: Its median seed-adjusted z-score is inactive: -0.0829.

Question: For UCCAGACUCUGGUCACCAATT against CREB3L1, which median seed-adjusted z-score is on record?
Answer: The median seed-adjusted z-score was inactive: 0.708.

Question: With GGACAAAGGUUCCUCAGGATT against ZFP41 as the sequence, how does the median seed-adjusted z-score read?
Answer: The median seed-adjusted z-score was inactive: 0.

Question: Which median seed-adjusted z-score does the source give for GAACAAACGGGAAUAUGAATT against UBE2A here?
Answer: The median seed-adjusted z-score was inactive: 0.306.

Question: Which median seed-adjusted z-score does the source give for CACUACUUGGUAUUGAAUATT against SLC25A27 here?
Answer: Its median seed-adjusted z-score is inactive: 0.0916.

Question: With AGAAUACUAUGACCAGACATT against TNFRSF1B as the sequence, how does the median seed-adjusted z-score read?
Answer: The median seed-adjusted z-score was inactive: -0.483.

Question: With GAUCAUUGAGAACACGUAUTT against RNF121 as the sequence, how does the median seed-adjusted z-score read?
Answer: Its median seed-adjusted z-score is inactive: -0.53.

Question: Which median seed-adjusted z-score does the source give for CCUUUACGUUCAAAUCACATT against ZNF268 here?
Answer: The median seed-adjusted z-score was inactive: 0.0358.

Question: With GCCUUGACCUUGAAGACCATT against MCF2L2 as the sequence, how does the median seed-adjusted z-score read?
Answer: The median seed-adjusted z-score was inactive: -0.465.

Question: For CGUUCACGUUGAAUAUGAATT against DDEF2, which median seed-adjusted z-score is on record?
Answer: The median seed-adjusted z-score was inactive: 0.438.

Question: For GGUCAGCUGGUAUUAAGGATT against USP1, which median seed-adjusted z-score is on record?
Answer: Its median seed-adjusted z-score is inactive: -0.564.

Question: With GCCUACACCUCAGUCCUAATT against DPH5 as the sequence, how does the median seed-adjusted z-score read?
Answer: The median seed-adjusted z-score was inactive: 0.

Question: Which median seed-adjusted z-score does the source give for GAAUAUUGAAAGUUACAGATT against LRP12 here?
Answer: Its median seed-adjusted z-score is inactive: 0.416.

Question: Which median seed-adjusted z-score does the source give for CAUCUUUCCCAAUGCCGAATT against EGR2 here?
Answer: Its median seed-adjusted z-score is inactive: -0.37.

Question: For GAAUCACUCUUUGACAACATT against SLC2A13, which median seed-adjusted z-score is on record?
Answer: The median seed-adjusted z-score was inactive: -0.0451.

Question: For CCAUGGCAGUACCAACUAGTT against CREM, which median seed-adjusted z-score is on record?
Answer: The median seed-adjusted z-score was active: -2.37.

Question: Which median seed-adjusted z-score does the source give for GGCGGUAUAUCUCCAGUAATT against LRBA here?
Answer: Its median seed-adjusted z-score is inactive: 0.219.

Question: Which median seed-adjusted z-score does the source give for GCUACGUGGUGCCCUGUAATT against SOX14 here?
Answer: Its median seed-adjusted z-score is inactive: -0.296.

Question: For CAAAGGAAACCAACAAUAATT against BIRC5, which median seed-adjusted z-score is on record?
Answer: Its median seed-adjusted z-score is inactive: 0.0236.

Question: For GGAGGAAAAAUCAUACCAATT against UGT3A1, which median seed-adjusted z-score is on record?
Answer: The median seed-adjusted z-score was inactive: 0.864.

Question: For GGCAUUAAAUUGGUGCGAATT against LNX2, which median seed-adjusted z-score is on record?
Answer: Its median seed-adjusted z-score is inactive: 0.

Question: For CUAUGUGAACAAUCGAAUATT against ATP10D, which median seed-adjusted z-score is on record?
Answer: The median seed-adjusted z-score was inactive: -0.35.

Question: Which median seed-adjusted z-score does the source give for ACUUAAACGUGUCCCAUGATT against DUSP28 here?
Answer: Its median seed-adjusted z-score is inactive: 0.

Question: With GACCAAGACCAAUGCAUAATT against HP as the sequence, how does the median seed-adjusted z-score read?
Answer: The median seed-adjusted z-score was inactive: 0.

Question: For GCUGUUCGGCUUCACCCUATT against WFDC2, which median seed-adjusted z-score is on record?
Answer: Its median seed-adjusted z-score is inactive: -0.466.

Question: For GUAGUACAAUUGUCAGACATT against KITLG, which median seed-adjusted z-score is on record?
Answer: Its median seed-adjusted z-score is inactive: 0.119.

Question: With GGAUAAUUUUGCCUACCUUTT against GALNTL1 as the sequence, how does the median seed-adjusted z-score read?
Answer: Its median seed-adjusted z-score is inactive: -0.234.
